Tested on: diazepam receptor (fresh rat frontal cortex)
Test: radioreceptor assay: inhibition of ^3 H-diazepam binding (selectivity, drugs incubated with saliva)
Details: 10^-5 M, ^3 H-diazepam 0.50 nM

## CC(C)NCC(O)COc1cccc2ccccc12 (racemic) [dl-propranolol]
  inhibition of ^3 H-diazepam binding compared with saliva itself: failed to inhibit ^3 H-diazepam binding more than saliva itself

## OCCN1CCN(CCCN2c3ccccc3Sc3ccc(C(F)(F)F)cc32)CC1 [fluphenazine]
  inhibition of ^3 H-diazepam binding compared with saliva itself: failed to inhibit ^3 H-diazepam binding more than saliva itself

## O=C(CCCN1CCC(O)(c2ccc(Cl)cc2)CC1)c1ccc(F)cc1 [haloperidol]
  inhibition of ^3 H-diazepam binding compared with saliva itself: failed to inhibit ^3 H-diazepam binding more than saliva itself

From patent publication US4431742A, “Radioreceptor assay for benzodiazepines in saliva” (The United States of America as represented by the …, priority 1981, dated 1984)
